# In all, about 400,000 compounds went through this assay and about 3,700 (0.93%) were called active. The shares of active, inactive and inconclusive entries below differ from those in the screen. Calls come from the whole dose curve; as a rule, active = well fitted inhibition curve with a large enough effect; inconclusive = small, poorly fitted or top-dose-only effect, or another doubt; inactive = no such curve, though single readings can be large or run the other way. Where the call is inconclusive, the potency comes from a doubtful curve fit.
# Sequences of proteins named here, by UniProt entry; tags and fusion partners are left off. A change or cut given only in a name is not applied to a line headed by its entry.
# UniProt P11473: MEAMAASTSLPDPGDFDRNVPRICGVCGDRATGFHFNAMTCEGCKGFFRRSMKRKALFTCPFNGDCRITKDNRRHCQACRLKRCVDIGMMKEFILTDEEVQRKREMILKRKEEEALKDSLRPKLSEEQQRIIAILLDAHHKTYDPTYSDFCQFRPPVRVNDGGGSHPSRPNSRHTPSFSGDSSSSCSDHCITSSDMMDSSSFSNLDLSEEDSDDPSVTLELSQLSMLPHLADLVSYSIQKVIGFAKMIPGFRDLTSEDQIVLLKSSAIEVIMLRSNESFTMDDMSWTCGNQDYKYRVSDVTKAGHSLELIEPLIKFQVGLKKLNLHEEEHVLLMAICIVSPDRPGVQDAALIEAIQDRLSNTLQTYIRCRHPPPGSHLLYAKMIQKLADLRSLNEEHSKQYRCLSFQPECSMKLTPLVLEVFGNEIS
# Target: Vitamin D3 receptor (Homo sapiens) (UniProt P11473)
# Assay: Inhibitors of the vitamin D receptor (VDR): qHTS
# Details: VDR-SRC2-3 peptide fluorescence polarization, 2 h; max response, negative = inhibition: stronger effect = lower value
# Procedure, shortened: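 VDR–SRC2-3 interaction, FP format. Cmpds 23 nl via pintool, brief spin, 2 h ambient incubation.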
# % is set by controls: 0 for no effect and ±100 for the full control effect; potency is the fitted concentration of half-maximal effect.
SMILES,Potency,"max response, negative = inhibition"
CCC(=O)/C=C1/Sc2ccc(OC)cc2N1CCO,"inconclusive: 79.4 µM [inhibitor, partial curve, poor fit]",
COC(=O)COc1ccc(C(C2C(=O)CC(C)(C)CC2=O)C2C(=O)CC(C)(C)CC2=O)cc1,active: 50.1 µM,
Cc1cccc(NC(=O)COC(=O)c2ccc(S(=O)(=O)N3CCCCCC3)cc2)c1,,inactive: 2.65%
COCCNC(=O)Nc1ccc2nc(-c3ccco3)c(-c3ccco3)nc2c1,active: 79.4 µM,
COc1cc([N+](=O)[O-])ccc1NC(=S)Nn1cnnc1,"inconclusive: 79.4 µM [inhibitor, single point]",
CSc1nn(Cc2ccc(C)cc2)c(N)c1S(=O)(=O)c1ccccc1,,inactive: -3.13%
COc1cc(NCC(=O)Nc2cccc(S(=O)(=O)N3CCCCC3)c2)cc(OC)c1OC,,inactive: 0.454%
CCCCN(CC)CCCNC(=O)c1c(C)oc2ncnc(N3CCOCC3)c12,,inactive: 2.22%
Cc1onc(C(=O)Nc2sc3c(c2C(N)=O)CCCC3)c1[N+](=O)[O-],active: 79.4 µM,
O=C(NCc1ccccc1)Nc1cccc2ccccc12,"inconclusive: 100 µM [inhibitor, partial curve, poor fit]",
CCN1CCN(c2ncnc3c2cnn3-c2ccc(C)cc2C)CC1,"inconclusive: 10 µM [inhibitor, full curve, poor fit]",
CCOC(=O)c1c(N)sc(C(=O)Nc2ccccc2)c1C,"inconclusive: 89.1 µM [inhibitor, single point]",
O=C(CCl)c1ccc2c(c1)CCN2C(=O)C1CCCCC1,active: 44.7 µM,
Cc1noc(C)c1-c1cc(NCc2cccnc2)ncn1,"inconclusive: 89.1 µM [inhibitor, single point]",
NC(=O)c1cc[n+](CC(=O)c2ccc(NC(=O)c3ccccc3)cc2)cc1,"inconclusive: 28.2 µM [inhibitor, single point]",
O=C(Nc1ccc(Cl)cc1)[C@@H]1[C@@H]2C(=O)N(c3cccc(F)c3)C(=O)[C@@H]2[C@H]2C=CC=NN21,"inconclusive: 56.2 µM [inhibitor, single point]",
Cc1ccc2[nH]c(=O)c(CN(Cc3cccs3)Cc3nnnn3Cc3ccco3)cc2c1,"inconclusive: 79.4 µM [inhibitor, partial curve, poor fit]",
COc1ccc(/C=N/NC(=O)Cn2nc(C)c([N+](=O)[O-])c2C)cc1,"inconclusive: 89.1 µM [inhibitor, single point]",
CCCCNC(=O)C1CCCN(S(=O)(=O)CCC)C1 (centres undefined),,inactive: 4.61%
[O-]c1n[n+](-c2ccc(Cl)cc2Cl)cc2ccccc12,,inactive: 12%
COc1cc(NC(=O)Cn2c(=O)n(CC3CCC(C(=O)NCCc4ccccc4)CC3)c(=O)c3ccccc32)cc(OC)c1 (centres undefined),,inactive: 6.74%
CNC(=S)NNC(=O)CNc1ccc(C)c(Cl)c1,"inconclusive: 100 µM [inhibitor, single point]",

SMILES,Potency,"max response, negative = inhibition"
CC1CCCC(C)N1C(=O)COC(=O)CSc1ccc([N+](=O)[O-])cc1 (centres undefined),,inactive: -29.7%
Cn1cccc1C(=O)C(=O)Nc1cc(Cl)cc(Cl)c1,"inconclusive: 15.8 µM [inhibitor, partial curve, poor fit]",
CCc1ccc(CN(C)C(=O)CC2C(=O)NCCN2Cc2ccoc2)cc1 (centres undefined),,inactive: -4.79%
O=C1CC(c2ccccc2)Oc2ccc(Cl)cc21 (centres undefined),"inconclusive: 50.1 µM [inhibitor, partial curve, poor fit]",
C=CCSc1nc2ccccc2n1C(=O)/C=C/c1cc(OC)c(OC)c(OC)c1,"inconclusive: 20 µM [inhibitor, full curve]",
C(=N\Nc1nc(-c2ccccc2)cs1)/c1ccncc1,,inactive: 10.4%
c1ccc(-c2csc3ncnc(NCCCN4CCOCC4)c23)cc1,,inactive: 4.69%
CCOc1ccc(Cl)cc1S(=O)(=O)N1CCC(C(=O)NC2CC2)CC1,"inconclusive: 89.1 µM [inhibitor, single point]",
Cc1ccc(C(=O)/C=C/c2ccccc2)o1,"inconclusive: 79.4 µM [inhibitor, single point]",
CCOc1ccc(CNC(=O)c2ccc3oc(=O)n(Cc4ccccc4)c3c2)cc1,,inactive: 2.5%
O=C(Nc1ccc(Nc2ccccc2)cc1)c1ccc(Br)o1,"inconclusive: 20 µM [inhibitor, single point]",
O=C(O)CNC(=O)/C=C/c1ccc(Cl)cc1Cl,"inconclusive: 15.8 µM [inhibitor, partial curve, poor fit]",
CCN(CC)c1ccc(NC(=O)c2cccn2-c2nnc(N3CCCCC3)s2)c(C)c1,"inconclusive: 35.5 µM [inhibitor, single point]",
COc1cccc(Cn2nnc(C(=O)NCc3ccc(F)cc3)c2N)c1,"inconclusive: 79.4 µM [inhibitor, partial curve, poor fit]",
CCn1nc(C(=O)OCC(=O)NC(C)C)c2ccccc2c1=O,"inconclusive: 56.2 µM [inhibitor, single point]",
Cc1ccc(N2C(=O)[C@@H]3[C@H](C2=O)C2CCCN2[C@@H]3C(=O)c2ccccc2)cc1 (some centres undefined),"inconclusive: 89.1 µM [inhibitor, partial curve, poor fit]",
C=CCNC(=O)/C(C#N)=C/c1c(C)nn(-c2ccccc2)c1Cl,"inconclusive: 63.1 µM [inhibitor, partial curve, poor fit]",
Cc1ccc(OCC(=O)NNC(=O)C2CC(=O)N(c3ccc4c(c3)OCCO4)C2)cc1 (centres undefined),"inconclusive: 89.1 µM [inhibitor, partial curve, poor fit]",
Cc1ccc(C(=O)/C=C/c2ccc(F)cc2)o1,"inconclusive: 56.2 µM [inhibitor, partial curve, poor fit]",
CCCC(=O)NC1=C(Cl)C(=O)c2ccccc2C1=O,active: 7.94 µM,
Cc1ccc(-n2cc(-c3ccccc3)c3c(N4CCCCC4)ncnc32)cc1,,inactive: 6.28%
Oc1ccc(C=NNc2ccccn2)c(O)c1,,inactive: 10.4%

# Some of these compounds in order of count of non-hydrogen atoms, ascending.
SMILES,Potency,"max response, negative = inhibition"
C(=N\Nc1nc(-c2ccccc2)cs1)/c1ccncc1,,inactive: 10.4%
C=CCNC(=O)/C(C#N)=C/c1c(C)nn(-c2ccccc2)c1Cl,"inconclusive: 63.1 µM [inhibitor, partial curve, poor fit]",
C=CCSc1nc2ccccc2n1C(=O)/C=C/c1cc(OC)c(OC)c(OC)c1,"inconclusive: 20 µM [inhibitor, full curve]",

# Reference: PubChem BioAssay AID504847 (National Center for Advancing Translational Sciences (NCATS), 2011)
